PubChem BioAssay AID1259405 | NCATS, 2018

Test: 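Mouse-designed siRNAs used to find CHO productivity engineering targets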 (primary screen)
Cells: Chinese hamster CHO-K1 ovary cells with stable secreted eGFP expression
Knock-down reagent: single siRNA against mouse genes, 0.8 pmol siRNA per well (2 µl of 400 nM stock)
Time to read-out: 3 days
Measurement: 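Per-well intracellular GFP measured by laser scanning cytometry, plus viability from ATP luminescence, each relative to plate median of non-targeting control wells, in %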
Scale: GFP, % of control: higher = more GFP per well, higher productivity; viability (ATP), % of control: higher = more viable cells (more ATP)
Rule for the call: 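Called active when intracellular GFP, relative to negative control, is at or above 120%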
The deposit covers about 50,000 reagents; shown is a part drawn at random. About 4,000 of all reagents (8%) were called active. 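Mouse siRNA library applied to hamster cells; one well for each siRNA.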 The numbers tell different reagents against one gene apart. Reagent sequences are not shown.

| gene knocked down | siRNA no. | GFP, % of control | viability (ATP), % of control | Outcome |
| --- | --- | --- | --- | --- |
| Ppp3cc (protein phosphatase 3, catalytic subunit, gamma isoform) | 1 | 80.5 | 86 | inactive |
| Ppp3cc (protein phosphatase 3, catalytic subunit, gamma isoform) | 2 | 22.8 | 35.2 | inactive |
| Ppp3cc (protein phosphatase 3, catalytic subunit, gamma isoform) | 3 | 99.3 | 97.5 | inactive |
| Or12e10 (olfactory receptor family 12 subfamily E member 10) | 1 | 83.5 | 75.7 | inactive |
| Or12e10 (olfactory receptor family 12 subfamily E member 10) | 2 | 55.4 | 59.4 | inactive |
| Or12e10 (olfactory receptor family 12 subfamily E member 10) | 3 | 77.7 | 33.7 | inactive |
| Eef1d (eukaryotic translation elongation factor 1 delta) | 1 | 57.5 | 50.1 | inactive |
| Eef1d (eukaryotic translation elongation factor 1 delta) | 2 | 99.1 | 64.3 | inactive |
| Eef1d (eukaryotic translation elongation factor 1 delta) | 3 | 163 | 106 | active |
| Inhbc (inhibin beta-C) | 1 | 24.5 | 34.2 | inactive |
| Inhbc (inhibin beta-C) | 2 | 54.8 | 71.3 | inactive |
| Inhbc (inhibin beta-C) | 3 | 56.6 | 68.2 | inactive |
| Or5l14 (olfactory receptor family 5 subfamily L member 14) | 1 | 91.9 | 71.1 | inactive |
| Or5l14 (olfactory receptor family 5 subfamily L member 14) | 2 | 53.8 | 78.1 | inactive |
| Or5l14 (olfactory receptor family 5 subfamily L member 14) | 3 | 84.3 | 69.1 | inactive |
| Naa20 (N(alpha)-acetyltransferase 20, NatB catalytic subunit) | 1 | 76.1 | 82.5 | inactive |
| Naa20 (N(alpha)-acetyltransferase 20, NatB catalytic subunit) | 2 | 34.3 | 67.8 | inactive |
| Naa20 (N(alpha)-acetyltransferase 20, NatB catalytic subunit) | 3 | 92.7 | 104 | inactive |
| Zic3 (zinc finger protein of the cerebellum 3) | 1 | 85.9 | 116 | inactive |
| Zic3 (zinc finger protein of the cerebellum 3) | 2 | 86.6 | 61.7 | inactive |
| Gsc (goosecoid homeobox) | 1 | 75.4 | 81.5 | inactive |
| Gsc (goosecoid homeobox) | 2 | 53.1 | 50.6 | inactive |
| Gsc (goosecoid homeobox) | 3 | 104 | 95.9 | inactive |
| Acad9 (acyl-Coenzyme A dehydrogenase family, member 9) | 1 | 100 | 80.1 | inactive |
| Acad9 (acyl-Coenzyme A dehydrogenase family, member 9) | 2 | 58.8 | 54.6 | inactive |
| Acad9 (acyl-Coenzyme A dehydrogenase family, member 9) | 3 | 73.2 | 84.3 | inactive |
| Naa60 (N(alpha)-acetyltransferase 60, NatF catalytic subunit) | 1 | 56.6 | 79.1 | inactive |
| Naa60 (N(alpha)-acetyltransferase 60, NatF catalytic subunit) | 2 | 84.3 | 79.2 | inactive |
| Naa60 (N(alpha)-acetyltransferase 60, NatF catalytic subunit) | 3 | 87.6 | 34.9 | inactive |
| Itgb1bp1 (integrin beta 1 binding protein 1) | 1 | 73.5 | 63.2 | inactive |
| Itgb1bp1 (integrin beta 1 binding protein 1) | 2 | 85.5 | 79.5 | inactive |
| Itgb1bp1 (integrin beta 1 binding protein 1) | 3 | 58.1 | 69.6 | inactive |
| 2210016L21Rik (RIKEN cDNA 2210016L21 gene) | 1 | 95.2 | 77.7 | inactive |
| 2210016L21Rik (RIKEN cDNA 2210016L21 gene) | 2 | 65.1 | 73.9 | inactive |
| 2210016L21Rik (RIKEN cDNA 2210016L21 gene) | 3 | 98.5 | 97.4 | inactive |
| Pdcl2 (phosducin-like 2) | 1 | 75.7 | 58.2 | inactive |
| Pdcl2 (phosducin-like 2) | 2 | 84.5 | 79.2 | inactive |
| Pdcl2 (phosducin-like 2) | 3 | 85.8 | 74.3 | inactive |
| Usp10 (ubiquitin specific peptidase 10) | 1 | 54.2 | 81.6 | inactive |
| Usp10 (ubiquitin specific peptidase 10) | 2 | 49.9 | 54 | inactive |
| Usp10 (ubiquitin specific peptidase 10) | 3 | 59.2 | 60.6 | inactive |
| H2bc26 (H2B clustered histone 26) | 1 | 87.5 | 113 | inactive |
| H2bc26 (H2B clustered histone 26) | 2 | 81.2 | 83.4 | inactive |
| H2bc26 (H2B clustered histone 26) | 3 | 111 | 85.3 | inactive |
| Slc26a10 | 1 | 102 | 87.1 | inactive |
| Slc26a10 | 2 | 223 | 73.5 | active |
| Slc26a10 | 3 | 89.2 | 91.9 | inactive |
| Slc26a10 | 4 | 136 | 85.6 | active |
| Slc26a10 | 5 | 115 | 98.1 | inactive |
| Slc26a10 | 6 | 72.7 | 94.1 | inactive |
| Gjd2 (gap junction protein, delta 2) | 1 | 91.8 | 90.6 | inactive |
| Gjd2 (gap junction protein, delta 2) | 2 | 92.6 | 88 | inactive |
| Gjd2 (gap junction protein, delta 2) | 3 | 77.7 | 125 | inactive |
| Ggps1 (geranylgeranyl diphosphate synthase 1) | 1 | 99.2 | 92 | inactive |
| Ggps1 (geranylgeranyl diphosphate synthase 1) | 2 | 45.3 | 83.5 | inactive |
| Ggps1 (geranylgeranyl diphosphate synthase 1) | 3 | 19.4 | 29.1 | inactive |
| Dpcd (deleted in primary ciliary dyskinesia) | 1 | 32.7 | 43.5 | inactive |
| Dpcd (deleted in primary ciliary dyskinesia) | 2 | 80.8 | 94.1 | inactive |
| Dpcd (deleted in primary ciliary dyskinesia) | 3 | 145 | 148 | active |
| Sema3b | 1 | 54.8 | 77 | inactive |
| Sema3b | 2 | 59.8 | 40.5 | inactive |
| Sema3b | 3 | 71.3 | 37.9 | inactive |
| App (amyloid beta precursor protein) | 1 | 81.9 | 62.7 | inactive |
| App (amyloid beta precursor protein) | 2 | 115 | 72.9 | inactive |
| App (amyloid beta precursor protein) | 3 | 70.8 | 66.3 | inactive |
| Hes6 (hairy and enhancer of split 6) | 1 | 59.8 | 85.6 | inactive |
| Hes6 (hairy and enhancer of split 6) | 2 | 60.2 | 83.2 | inactive |
| Micos13 | 1 | 104 | 103 | inactive |
| Micos13 | 2 | 41.8 | 51.5 | inactive |
| Micos13 | 3 | 85.1 | 71 | inactive |
| Xpc (xeroderma pigmentosum, complementation group C) | 1 | 98.5 | 80.1 | inactive |
| Xpc (xeroderma pigmentosum, complementation group C) | 2 | 56.8 | 64.3 | inactive |
| Abhd17a (abhydrolase domain containing 17A) | 1 | 66.6 | 77.4 | inactive |
| Abhd17a (abhydrolase domain containing 17A) | 2 | 58.5 | 59.5 | inactive |
| Abhd17a (abhydrolase domain containing 17A) | 3 | 107 | 120 | inactive |
| Tmem25 (transmembrane protein 25) | 1 | 56.5 | 38.8 | inactive |
| Tmem25 (transmembrane protein 25) | 2 | 89.6 | 106 | inactive |
| Tmem25 (transmembrane protein 25) | 3 | 102 | 116 | inactive |
| Dnajb7 (DnaJ heat shock protein family (Hsp40) member B7) | 1 | 86.3 | 61.7 | inactive |
| Dnajb7 (DnaJ heat shock protein family (Hsp40) member B7) | 2 | 145 | 98.7 | active |
| Dnajb7 (DnaJ heat shock protein family (Hsp40) member B7) | 3 | 58.4 | 67 | inactive |
| Gucy2e (guanylate cyclase 2e) | 1 | 97.4 | 104 | inactive |
| Gucy2e (guanylate cyclase 2e) | 2 | 121 | 97.3 | active |
| Gucy2e (guanylate cyclase 2e) | 3 | 49.1 | 35.8 | inactive |
| Nt5e (5' nucleotidase, ecto) | 1 | 122 | 124 | active |
| Nt5e (5' nucleotidase, ecto) | 2 | 66.5 | 67.6 | inactive |
| Nt5e (5' nucleotidase, ecto) | 3 | 82.6 | 93.9 | inactive |
| Ing2 (inhibitor of growth family, member 2) | 1 | 88.7 | 87.2 | inactive |
| Ing2 (inhibitor of growth family, member 2) | 2 | 94.6 | 71.7 | inactive |
| Krt31 (keratin 31) | 1 | 81.1 | 85.3 | inactive |
| Krt31 (keratin 31) | 2 | 107 | 116 | inactive |
| Ankrd34b (ankyrin repeat domain 34B) | 1 | 41.6 | 26.5 | inactive |
| Ankrd34b (ankyrin repeat domain 34B) | 2 | 90.1 | 104 | inactive |
| Ankrd34b (ankyrin repeat domain 34B) | 3 | 90.5 | 110 | inactive |
| Or1o1 (olfactory receptor family 1 subfamily O member 1) | 1 | 58.3 | 56.1 | inactive |
| Or1o1 (olfactory receptor family 1 subfamily O member 1) | 2 | 69.4 | 83.7 | inactive |
| Or1o1 (olfactory receptor family 1 subfamily O member 1) | 3 | 158 | 65.6 | active |
| Rbm12b1 (RNA binding motif protein 12 B1) | 1 | 80 | 62.8 | inactive |
| Rbm12b1 (RNA binding motif protein 12 B1) | 2 | 95 | 81.5 | inactive |
| Rbm12b1 (RNA binding motif protein 12 B1) | 3 | 57.6 | 46.1 | inactive |
| Samhd1 (SAM domain and HD domain, 1) | 1 | 68.6 | 107 | inactive |
| Samhd1 (SAM domain and HD domain, 1) | 2 | 74.4 | 81.3 | inactive |
| Samhd1 (SAM domain and HD domain, 1) | 3 | 76.9 | 77.1 | inactive |
| Dtl (denticleless E3 ubiquitin protein ligase) | 1 | 67.1 | 84.1 | inactive |
| Dtl (denticleless E3 ubiquitin protein ligase) | 2 | 59.5 | 58.5 | inactive |
| Dtl (denticleless E3 ubiquitin protein ligase) | 3 | 90.2 | 57.5 | inactive |
| Kif1b (kinesin family member 1B) | 1 | 84.1 | 73 | inactive |
| Kif1b (kinesin family member 1B) | 2 | 67.1 | 57.3 | inactive |
